Data on one substance can be found in PMC8844116.

These are yes or no findings as the source states them, for the method shown. Binding seen in cells or lysates may run through a third protein. For part of these data: Binding can be weak; no strength is given.

Test [1] deals with T1, MEKK3, endogenous in mouse hippocampus (mouse (endogenous in hippocampus)) (UniProt Q61084).
T1 sequence: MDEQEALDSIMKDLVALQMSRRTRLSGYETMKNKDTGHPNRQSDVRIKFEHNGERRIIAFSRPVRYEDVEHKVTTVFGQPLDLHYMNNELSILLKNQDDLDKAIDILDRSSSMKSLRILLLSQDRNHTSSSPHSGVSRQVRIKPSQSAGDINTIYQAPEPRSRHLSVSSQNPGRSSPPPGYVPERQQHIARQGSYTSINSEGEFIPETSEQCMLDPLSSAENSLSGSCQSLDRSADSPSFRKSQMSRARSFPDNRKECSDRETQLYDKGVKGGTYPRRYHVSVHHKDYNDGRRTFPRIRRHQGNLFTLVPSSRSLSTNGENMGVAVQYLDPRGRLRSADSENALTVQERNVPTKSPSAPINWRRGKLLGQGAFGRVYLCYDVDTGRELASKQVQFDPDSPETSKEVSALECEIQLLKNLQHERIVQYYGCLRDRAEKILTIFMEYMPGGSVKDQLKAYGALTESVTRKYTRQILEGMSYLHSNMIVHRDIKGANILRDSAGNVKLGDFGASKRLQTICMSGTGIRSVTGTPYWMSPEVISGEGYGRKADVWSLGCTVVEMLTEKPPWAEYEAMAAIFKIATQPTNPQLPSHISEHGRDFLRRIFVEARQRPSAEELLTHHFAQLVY
In words: co-IP; endogenous proteins of the hippocampus of C57BL/6 mice with high fat diet and STZ-induced diabetes and of control mice; groups Con, DM, FPS-ZM1 1.0 mg/kg, corn oil; immunoprecipitation and immunoblot.

Test [2] concerns the target T1, MEKK3, endogenous in mouse hippocampus (mouse (endogenous in hippocampus)). In words: condition: only mice treated with FPS-ZM1 1.0 mg/kg; co-IP; endogenous proteins of the hippocampus of db/db mice treated with the RAGE antagonist FPS-ZM1 (1.0 mg/kg daily, 8 weeks); immunoprecipitation and immunoblot.
The target is the same in test [3]. In words: co-IP; endogenous proteins of the hippocampus of db/db and db/m mice; groups db/m, db/db, corn oil; immunoprecipitation and immunoblot.

In the case of “p38 mitogen-activated protein kinase, endogenous in mouse hippocampus (enzyme)”, the binding entry in test [1] was “binds”; in test [2], “no binding”; in test [3], “binds”.
